Measured values reported in the supplement of paper PMC5662767.
Counter-ions that a name gives are not always drawn. Some of the results follow. Part of the spread comes from offsets between plates or batches.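 Smoothened with circularly permuted GFP in its cytoplasmic tail is carried by a clonal Drosophila S2 line; fluorescence appears when Hh-driven phosphorylation opens an inhibitory loop. Per-cell signal, read by flow cytometry, was scaled to Hh-stimulated untreated cells. Hits were consistent fluorescence-shifting groups of inhibitors sharing pathway targets, not single compounds.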

Test system: Drosophila S2 cl14 SmoIP sensor cells
Assay: normalized SmoIP GFP fluorescence (untreated unstimulated = 0%, untreated Hh-stimulated = 100%); higher = more Smo activation sensor fluorescence
Conditions: compound concentration: 15 uM, 24 h
[1] = stimulation: Hh conditioned medium (+Hh)
[2] = stimulation: mock conditioned medium (-Hh)

SMILES | normalized SmoIP GFP fluorescence [1] [%] | normalized SmoIP GFP fluorescence [2] [%]
CC(C)OC(=O)C1=CN(C(=O)c2ccc(F)c(F)c2)CC(C)(C)c2c1[nH]c1ccccc21 | 121 | -15.3
Cc1ccccc1C(OCCN(C)C)c1ccccc1 (stereo not drawn) [orphenadrine-citrate-norflex] | 142 | -6.61
O[C@H](CNC[C@@H](O)[C@H]1CCc2cc(F)ccc2O1)[C@@H]1CCc2cc(F)ccc2O1 [Nebivolol(Bystolic)] | 174 | 70.3
C[C@]12C=CC(=O)N[C@@H]1CC[C@@H]1[C@@H]2CC[C@]2(C)[C@@H](C(=O)Nc3cc(C(F)(F)F)ccc3C(F)(F)F)CC[C@@H]12 [Dutasteride] | 166 | 27.4
Cc1ccc2c(c1)C(=O)C1(O)CCN(c3ccccc3)C1=N2 (stereo not drawn) [blebbistatin] | 145 | 43.6
CN(Cc1cnc2nc(N)nc(N)c2n1)c1ccc(C(=O)N[C@@H](CCC(=O)O)C(=O)O)cc1 [Abitrexate] | 229 | 17.4
CNC(=O)c1nn(C)c2c1C(C)(C)Cc1cnc(Nc3ccc(N4CCN(C)CC4)cc3)nc1-2 | 120 | 44.8
Cc1cc(Cl)ccc1OCCCC(=O)NO [Droxinostat] | 113 | 6.2
NC(=S)N/N=C/c1ncccc1N [triapine] | 146 | 4.04
Oc1nc(-c2ccc(C(F)(F)F)cc2)nc2c1CSCC2 | 124 | 2.11
Cc1ccc(NC(=O)c2ccc(CN3CCN(C)CC3)cc2)cc1Nc1nc(-c2cccnc2)cs1 [Masitinib-(AB1010)] | 96.5 | 64.8
Cc1cnc(NC(=O)Nc2cc(Br)c(C)cc2OC[C@@H]2CNCCO2)cn1 | 176 | 56.5
CC(=O)N1CCN(c2ccc(OCC3COC(Cn4ccnc4)(c4ccc(Cl)cc4Cl)O3)cc2)CC1 (stereo not drawn) [Ketoconazole] | 196 | 79.7
CN(C)Cc1ccc(-c2nc3cccc4c3n2CCNC4=O)cc1 | 170 | -4.08
O=C1Nc2ccccc2/C1=C1/Nc2ccccc2C1=O [Indirubin] | 127 | -13.9
CC(=O)Nc1nc(C)c(-c2ccc(Cl)c(S(=O)(=O)NCCO)c2)s1 | 225 | 14.5
O=C(NC(NC(=S)Nc1ccc(F)c([N+](=O)[O-])c1)C(Cl)(Cl)Cl)C(c1ccccc1)c1ccccc1 (stereo not drawn) | 60 | 64.8

Complete entries, looked up by structure:
Cc1cnc(NC(=O)Nc2cc(Br)c(C)cc2OC[C@@H]2CNCCO2)cn1 is entered as normalized SmoIP GFP fluorescence [1] [%]: 176; normalized SmoIP GFP fluorescence [2] [%]: 56.5
O=C(NC(NC(=S)Nc1ccc(F)c([N+](=O)[O-])c1)C(Cl)(Cl)Cl)C(c1ccccc1)c1ccccc1 (stereo not drawn) is entered as normalized SmoIP GFP fluorescence [1] [%]: 60; normalized SmoIP GFP fluorescence [2] [%]: 64.8

The listing continues.

SMILES | normalized SmoIP GFP fluorescence [1] [%] | normalized SmoIP GFP fluorescence [2] [%]
COc1ccccc1N1CCN(CC(O)COc2cccc3ccccc23)CC1 (stereo not drawn) [Naftopidil-Dihydrochloride] | 171 | 41.9
Oc1ccc(-c2nc(-c3ccc(F)cc3)c(-c3ccncc3)[nH]2)cc1 | 159 | 38.5
N#C/C(=C\c1ccc(O)c(O)c1)C(=O)NCc1ccccc1 | 214 | 84.6
CN(C)C(=O)c1ccc(S(=O)(=O)c2ccc(NC(=O)[C@@](C)(O)C(F)(F)F)c(Cl)c2)cc1 | 164 | 23.8
Cc1cc(OCCCS(C)(=O)=O)cc(C)c1-c1cccc(COc2ccc3c(c2)OC[C@H]3CC(=O)O)c1 | 157 | 2.05
NC12CC3CC(CC(C3)C1)C2 [Amantadine-hydrochloride(Symmetrel)] | 154 | -14.3
Cn1c(=O)cc(N2CCC[C@@H](N)C2)n(Cc2cc(F)ccc2C#N)c1=O [trelagliptin] | 113 | 46.4
O=S(=O)(c1ccccc1)N(CC(F)(F)F)c1ccc(C(O)(C(F)(F)F)C(F)(F)F)cc1 | 119 | 17.5
O=C1CCc2cc(OCCCCc3nnnn3C3CCCCC3)ccc2N1 [Cilostazol] | 185 | 26.9
CC1CCN(CC[C@H]2CCCN2S(=O)(=O)c2cccc(O)c2)CC1 | 119 | -2.2
c1ccc(-c2nn3c(c2-c2ccnc4cc(OCCN5CCOCC5)ccc24)CCC3)nc1 | 99.1 | 1.24
Nc1nc(N)c2nc(-c3cccc(O)c3)cnc2n1 | 103 | -4.92
O=C(NCCN1CCOCC1)c1ccc(Cl)cc1 [moclobemide] | 114 | -3.79
CN1CCc2nc(C(=O)N[C@@H]3C[C@@H](C(=O)N(C)C)CC[C@@H]3NC(=O)C(=O)Nc3ccc(Cl)cn3)sc2C1 [edoxaban] | 162 | 31.7
C[C@H]1COC2=C1C(=O)C(=O)c1c2ccc2c1CCCC2(C)C [Cryptotanshinone] | 138 | 7.19
CN1CCN(C2=Nc3cc(Cl)ccc3Nc3ccccc32)CC1 [Clozapine(Clozaril)] | 157 | 34.5
Cc1cc(C)c(CNC(=O)c2cc(-c3ccc(CN4CCOCC4)cc3)cc3c2cnn3C2CCCC2)c(=O)[nH]1 | 180 | 65
